# Assay results: the supplement of paper PMC8728848
# The list shows a part of the results.
# B1: a L Fucosidase (Thermotoga maritima) (protein)
# chain: MASMKPRYKPDWESLREHTVPKWFDKAKFGIFIHWGIYSVPGWATPTGELGKVPMDAWFFQNPYAEWYENSLRIKESPTWEYHVKTYGENFEYEKFADLFTAEKWDPQEWADLFKKAGAKYVIPTTKHHDGFCLWGTKYTDFNSVKRGPKRDLVGDLAKAVREAGLRFGVYYSGGLDWRFTTEPIRYPEDLSYIRPNTYEYADYAYKQVMELVDLYLPDVLWNNMGWPEKGKEDLKYLFAYYYNKHPEGSVNDRWGVPHWDFKTAEYHVNYPGDLPGYKWEFTRGIGLSFGYNRNEGPEHMLSVEQLVYTLVDVVSKGGNLLLNVGPKGDGTIPDLQKERLLGLGEWLRKYGDAIYGTSVWERCCAKTEDGTEIRFTRKCNRIFVIFLGIPTGEKIVIEDLNLSAGTVRHFLTGERLSFKNVGKNLEITVPKKLLETDSITLVLEAVEE
# Columns and labels:
# Test in all cases: glycan array binding signal (z-score within array); higher = stronger binding
# Conditions in all cases: glycan notation: IUPAC condensed, linker removed; mutation: D224N
# [1] = target: Fuc(a1-2)[Gal(a1-3)]Gal(b1-4)[Fuc(a1-3)]GlcNAc(b1-3)GalNAc
# Procedure, shortened: (§1)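 The binding signal is a Z-score computed within each array and averaged over linkers. Arrays of the same protein sequence at different concentrations or buffers were also averaged together. Data originate from 3228 arrays in the Consortium for Functional Glycomics database, kept only where the protein sequence was available.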
# [2] = target: Fuc(a1-2)[Gal(a1-4)]Gal(b1-4)GlcNAc
# Procedure, shortened: as §1
# [3] = target: Fuc(a1-2)[GalNAc(a1-3)]Gal
# Procedure, shortened: as §1
# [4] = target: Fuc(a1-2)[GalNAc(a1-3)]Gal(b1-3)GalNAc(a1-3)[Fuc(a1-2)]Gal(b1-4)GlcNAc
# Procedure, shortened: as §1
# [5] = target: Fuc(a1-2)[GalNAc(a1-3)]Gal(b1-3)GalNAc(b1-3)Gal(a1-4)Gal(b1-4)Glc
# Procedure, shortened: as §1
# [6] = target: Fuc(a1-2)[GalNAc(a1-3)]Gal(b1-3)GlcNAc
# Procedure, shortened: as §1
# [7] = target: Fuc(a1-2)[GalNAc(a1-3)]Gal(b1-3)GlcNAc(b1-2)Man(a1-3)[Fuc(a1-2)[GalNAc(a1-3)]Gal(b1-3)GlcNAc(b1-2)Man(a1-6)]Man(b1-4)GlcNAc(b1-4)GlcNAc
# Procedure, shortened: as §1
# [8] = target: Fuc(a1-2)[GalNAc(a1-3)]Gal(b1-3)GlcNAc(b1-2)Man(a1-3)[Fuc(a1-2)[GalNAc(a1-3)]Gal(b1-3)GlcNAc(b1-2)Man(a1-6)]Man(b1-4)GlcNAc(b1-4)[Fuc(a1-6)]GlcNAc
# Procedure, shortened: as §1
# [9] = target: Fuc(a1-2)[GalNAc(a1-3)]Gal(b1-3)GlcNAc(b1-3)GalNAc
# Procedure, shortened: as §1
# [10] = target: Fuc(a1-2)[GalNAc(a1-3)]Gal(b1-3)GlcNAc(b1-6)GalNAc
# Procedure, shortened: as §1
# [11] = target: Fuc(a1-2)[GalNAc(a1-3)]Gal(b1-4)Glc
# Procedure, shortened: as §1
# [12] = target: Fuc(a1-2)[GalNAc(a1-3)]Gal(b1-4)GlcNAc
# Procedure, shortened: as §1
# [13] = target: Fuc(a1-2)[GalNAc(a1-3)]Gal(b1-4)GlcNAc(b1-2)Man
# Procedure, shortened: as §1
# [14] = target: Fuc(a1-2)[GalNAc(a1-3)]Gal(b1-4)GlcNAc(b1-2)Man(a1-3)[Fuc(a1-2)[GalNAc(a1-3)]Gal(b1-4)GlcNAc(b1-2)Man(a1-6)]Man(b1-4)GlcNAc(b1-4)GlcNAc
# Procedure, shortened: as §1
# [15] = target: Fuc(a1-2)[GalNAc(a1-3)]Gal(b1-4)GlcNAc(b1-2)Man(a1-3)[Fuc(a1-2)[GalNAc(a1-3)]Gal(b1-4)GlcNAc(b1-2)Man(a1-6)]Man(b1-4)GlcNAc(b1-4)[Fuc(a1-6)]GlcNAc
# Procedure, shortened: as §1
# [16] = target: Fuc(a1-2)[GalNAc(a1-3)]Gal(b1-4)GlcNAc(b1-3)Gal(b1-4)GlcNAc
# Procedure, shortened: as §1
# [17] = target: Fuc(a1-2)[GalNAc(a1-3)]Gal(b1-4)GlcNAc(b1-3)Gal(b1-4)GlcNAc(b1-3)Gal(b1-4)GlcNAc
# Procedure, shortened: as §1
# [18] = target: Fuc(a1-2)[GalNAc(a1-3)]Gal(b1-4)GlcNAc(b1-3)GalNAc
# Procedure, shortened: as §1
# [19] = target: Fuc(a1-2)[GalNAc(a1-3)]Gal(b1-4)GlcNAc(b1-3)[Fuc(a1-2)[GalNAc(a1-3)]Gal(b1-4)GlcNAc(b1-6)]GalNAc
# Procedure, shortened: as §1
# [20] = target: Fuc(a1-2)[GalNAc(a1-3)]Gal(b1-4)GlcNAc(b1-6)GalNAc
# Procedure, shortened: as §1
# [21] = target: Fuc(a1-2)[GalNAc(a1-3)]Gal(b1-4)[Fuc(a1-3)]GlcNAc
# Procedure, shortened: as §1
# [22] = target: Fuc(a1-2)[GalNAc(a1-3)]Gal(b1-4)[Fuc(a1-3)]GlcNAc(b1-3)GalNAc
# Procedure, shortened: as §1
# [23] = target: Fuc(a1-2)[GalNAc(a1-4)]Gal(b1-4)GlcNAc
# Procedure, shortened: as §1
# [24] = target: Fuc(a1-2)[GalNAc(b1-3)]Gal
# Procedure, shortened: as §1
# [25] = target: Fuc(a1-3)GlcNAc
# Procedure, shortened: as §1
# [26] = target: Fuc(a1-3)[Gal(b1-4)]Glc6S
# Procedure, shortened: as §1
# [27] = target: Fuc(a1-3)[Gal(b1-4)]GlcNAc
# Procedure, shortened: as §1
# [28] = target: Fuc(a1-3)[Gal(b1-4)]GlcNAc(b1-2)Man
# Procedure, shortened: as §1
# [29] = target: Fuc(a1-3)[Gal(b1-4)]GlcNAc(b1-2)Man(a1-3)[Fuc(a1-3)[Gal(b1-4)]GlcNAc(b1-2)Man(a1-6)]Man(b1-4)GlcNAc(b1-4)GlcNAc
# Procedure, shortened: as §1
# [30] = target: Fuc(a1-3)[Gal(b1-4)]GlcNAc(b1-2)Man(a1-3)[Fuc(a1-3)[Gal(b1-4)]GlcNAc(b1-2)Man(a1-6)]Man(b1-4)GlcNAc(b1-4)[Fuc(a1-6)]GlcNAc
# Procedure, shortened: as §1
# [31] = target: Fuc(a1-3)[Gal(b1-4)]GlcNAc(b1-3)Gal(b1-3)[Fuc(a1-4)]GlcNAc
# Procedure, shortened: as §1
# [32] = target: Fuc(a1-3)[Gal(b1-4)]GlcNAc(b1-3)Gal(b1-4)[Fuc(a1-3)]GlcNAc
# Procedure, shortened: as §1
# [33] = target: Fuc(a1-3)[Gal(b1-4)]GlcNAc(b1-3)Gal(b1-4)[Fuc(a1-3)]GlcNAc(b1-3)Gal(b1-4)[Fuc(a1-3)]GlcNAc
# Procedure, shortened: as §1
# [34] = target: Fuc(a1-3)[Gal(b1-4)]GlcNAc(b1-3)GalNAc
# Procedure, shortened: as §1
# [35] = target: Fuc(a1-3)[Gal(b1-4)]GlcNAc(b1-6)GalNAc
# Procedure, shortened: as §1
# [36] = target: Fuc(a1-3)[Gal(b1-4)]GlcNAc(b1-6)[Gal(b1-3)GlcNAc(b1-3)]Gal(b1-4)Glc
# Procedure, shortened: as §1
# [37] = target: Fuc(a1-3)[Gal(b1-4)]GlcNAc6S
# Procedure, shortened: as §1
# [38] = target: Fuc(a1-3)[Gal3S(b1-4)]Glc
# Procedure, shortened: as §1
binder,measurement,setting,value
B1,glycan array binding signal (z-score),[1],0.129
same,glycan array binding signal (z-score),[2],0.573
same,glycan array binding signal (z-score),[3],0.54
same,glycan array binding signal (z-score),[4],-0.304
same,glycan array binding signal (z-score),[5],-0.035
same,glycan array binding signal (z-score),[6],2.8
same,glycan array binding signal (z-score),[7],0.093
same,glycan array binding signal (z-score),[8],0.058
same,glycan array binding signal (z-score),[9],-0.058
same,glycan array binding signal (z-score),[10],-0.655
same,glycan array binding signal (z-score),[11],-0.503
same,glycan array binding signal (z-score),[12],-0.808
same,glycan array binding signal (z-score),[13],-0.899
same,glycan array binding signal (z-score),[14],0.374
same,glycan array binding signal (z-score),[15],0.588
same,glycan array binding signal (z-score),[16],1.02
same,glycan array binding signal (z-score),[17],0.201
same,glycan array binding signal (z-score),[18],-0.608
same,glycan array binding signal (z-score),[19],-0.644
same,glycan array binding signal (z-score),[20],-1.05
same,glycan array binding signal (z-score),[21],-0.067
same,glycan array binding signal (z-score),[22],0.894
same,glycan array binding signal (z-score),[23],-0.836
same,glycan array binding signal (z-score),[24],-0.14
same,glycan array binding signal (z-score),[25],-0.863
same,glycan array binding signal (z-score),[26],2.33
same,glycan array binding signal (z-score),[27],-0.745
same,glycan array binding signal (z-score),[28],-0.175
same,glycan array binding signal (z-score),[29],-0.636
same,glycan array binding signal (z-score),[30],1.05
same,glycan array binding signal (z-score),[31],-0.649
same,glycan array binding signal (z-score),[32],0.138
same,glycan array binding signal (z-score),[33],0.062
same,glycan array binding signal (z-score),[34],-0.159
same,glycan array binding signal (z-score),[35],-0.2
same,glycan array binding signal (z-score),[36],0.071
same,glycan array binding signal (z-score),[37],-0.263
same,glycan array binding signal (z-score),[38],-0.258

# Exported with tabs: part of the list above.
binder	measurement	setting	value
B1	glycan array binding signal (z-score)	[4]	-0.304
same	glycan array binding signal (z-score)	[6]	2.8
same	glycan array binding signal (z-score)	[12]	-0.808
